PMC4656997
No constants are given. Whether binding was seen depends on the method and setting. Some entries that bind do so weakly or less than the wild type.

Amino acid sequences for entries named in this document (tags omitted). A change or cut given only in a name is not applied to a line headed by its entry. Residues count along the entry.
UniProt Q9NYV4: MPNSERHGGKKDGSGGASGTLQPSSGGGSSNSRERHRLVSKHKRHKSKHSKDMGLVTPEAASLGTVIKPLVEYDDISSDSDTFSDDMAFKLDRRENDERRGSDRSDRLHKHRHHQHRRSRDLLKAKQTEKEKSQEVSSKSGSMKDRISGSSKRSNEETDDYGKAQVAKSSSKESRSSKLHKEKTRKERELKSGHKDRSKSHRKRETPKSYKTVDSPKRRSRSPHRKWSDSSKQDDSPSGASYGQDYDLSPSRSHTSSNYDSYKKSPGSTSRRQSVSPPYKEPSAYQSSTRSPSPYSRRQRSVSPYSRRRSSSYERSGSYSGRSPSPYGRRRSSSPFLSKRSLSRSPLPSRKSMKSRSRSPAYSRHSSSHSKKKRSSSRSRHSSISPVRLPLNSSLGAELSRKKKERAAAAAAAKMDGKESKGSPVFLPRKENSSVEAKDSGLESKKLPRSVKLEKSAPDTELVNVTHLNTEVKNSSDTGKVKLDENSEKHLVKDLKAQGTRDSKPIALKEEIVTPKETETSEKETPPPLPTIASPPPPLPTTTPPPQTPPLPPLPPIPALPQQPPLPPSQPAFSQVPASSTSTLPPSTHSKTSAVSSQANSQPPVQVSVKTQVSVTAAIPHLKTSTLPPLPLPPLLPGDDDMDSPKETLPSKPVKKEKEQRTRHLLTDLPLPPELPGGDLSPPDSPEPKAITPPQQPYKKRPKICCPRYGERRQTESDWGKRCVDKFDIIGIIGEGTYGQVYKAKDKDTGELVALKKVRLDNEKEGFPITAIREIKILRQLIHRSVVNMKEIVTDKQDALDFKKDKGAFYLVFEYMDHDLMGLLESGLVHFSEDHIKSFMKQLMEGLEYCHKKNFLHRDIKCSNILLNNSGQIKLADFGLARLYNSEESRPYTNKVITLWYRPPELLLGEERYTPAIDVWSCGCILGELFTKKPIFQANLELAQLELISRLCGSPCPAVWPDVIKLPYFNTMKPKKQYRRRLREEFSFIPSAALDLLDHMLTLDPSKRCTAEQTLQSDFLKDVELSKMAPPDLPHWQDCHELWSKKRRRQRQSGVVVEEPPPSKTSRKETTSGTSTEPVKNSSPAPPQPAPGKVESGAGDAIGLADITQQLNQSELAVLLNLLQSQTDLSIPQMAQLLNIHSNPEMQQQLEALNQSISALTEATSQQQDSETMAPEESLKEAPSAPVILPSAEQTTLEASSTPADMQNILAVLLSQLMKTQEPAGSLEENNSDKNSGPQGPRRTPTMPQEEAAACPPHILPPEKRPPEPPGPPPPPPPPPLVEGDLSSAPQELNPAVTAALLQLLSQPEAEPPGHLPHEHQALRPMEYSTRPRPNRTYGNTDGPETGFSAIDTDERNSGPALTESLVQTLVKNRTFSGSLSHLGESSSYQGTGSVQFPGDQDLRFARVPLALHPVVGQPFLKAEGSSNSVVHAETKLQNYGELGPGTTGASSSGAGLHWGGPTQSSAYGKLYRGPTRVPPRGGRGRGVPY
CDK12^715–1052: residues 715-1052 of Q9NYV4
CDK12^715–1038: residues 715-1038 of Q9NYV4
UniProt O75909: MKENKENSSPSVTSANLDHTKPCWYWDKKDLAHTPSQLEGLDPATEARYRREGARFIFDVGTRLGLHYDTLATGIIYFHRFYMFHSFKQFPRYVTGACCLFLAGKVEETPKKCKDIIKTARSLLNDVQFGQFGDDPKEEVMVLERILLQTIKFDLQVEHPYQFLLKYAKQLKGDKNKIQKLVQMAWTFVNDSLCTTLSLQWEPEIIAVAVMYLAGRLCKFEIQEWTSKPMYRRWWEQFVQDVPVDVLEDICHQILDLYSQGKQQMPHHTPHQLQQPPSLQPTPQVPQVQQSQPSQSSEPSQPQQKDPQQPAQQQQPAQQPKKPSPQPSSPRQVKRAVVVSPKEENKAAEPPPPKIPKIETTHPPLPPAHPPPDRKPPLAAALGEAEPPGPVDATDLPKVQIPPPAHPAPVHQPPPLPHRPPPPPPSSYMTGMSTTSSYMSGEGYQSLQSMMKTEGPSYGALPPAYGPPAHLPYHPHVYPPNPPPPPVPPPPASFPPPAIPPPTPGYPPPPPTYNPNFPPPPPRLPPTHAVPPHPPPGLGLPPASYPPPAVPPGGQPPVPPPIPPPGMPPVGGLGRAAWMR

What was measured:
[1] = target: GST-CDK12 (full length CDK12 Isoform 1) (human) (UniProt Q9NYV4); assay: tandem affinity co-purification (Ni-NTA agarose, then glutathione agarose); full length proteins co-infected in Sf9 cells, lysate with additional 0.5 M NaCl, captured on Ni-NTA agarose, eluted with imidazole, then bound to glutathione agarose and eluted with glutathione; fractions checked by SDS-PAGE or Western blotting
[2] = target: 6xHis-CDK12 (full length CDK12 Isoform 1) (human) (UniProt Q9NYV4); assay: as above
CDK12^715–1052 (human) = CDK12^715–1052 (human) (UniProt Q9NYV4); assay: crystal structure; CDK12^715–1052/cyclin K^11–267 complex, 1 mM AMP-PNP and 5 mM MgCl2 added, crystals grown at 20 °C in 20% PEG3350, 150 mM DL-malic acid; space group P2_(1), 3.15 Å, two complexes in the asymmetric unit; both purified
CDK12^715–1038 (human) = CDK12^715–1038 (human) (UniProt Q9NYV4); assay: crystal structure; CDK12^715–1038/cyclin K^11–267 complex phosphorylated with CAK, 1 mM AMP-PNP added, crystals grown at 4 °C in 20% PEG3350, 0.1 M Bis-tris propane pH 6.5, 0.2 M sodium nitrate, 10% ethylene glycol, 1 mM MgCl2; space group P2_(1), 3.15 Å; both purified

## 6xHis-CycK1 (full length cyclin K1) (from UniProt O75909 1-580)
[1]
  binding: binds

## GST-CycK1 (full length cyclin K1) (from UniProt O75909 1-580)
[2]
  binding: binds

## CycK^11–267 (from UniProt O75909 11-267) (domain or fragment)
CDK12^715–1052 (human)
  binding: binds
CDK12^715–1038 (human)
  binding: binds
